These are yes or no findings as the source states them, for the method shown. For some of these results: In cells and extracts the contact can be indirect. Some binding calls cover weakened binding; strength is not graded here.
Legend:
hSSB1 1–199 (human) = molecular target: T1, hSSB1 1–199 (human) (UniProt Q9BQ15); test: pull-down; hSSB1 (full length or truncated) immobilised on cyanogen bromide-activated Sepharose 4B, incubated with 2 μg GST-hOGG1 or GST; supernatant, wash and SDS eluate on SDS-PAGE, Coomassie blue; both purified
T1 sequence: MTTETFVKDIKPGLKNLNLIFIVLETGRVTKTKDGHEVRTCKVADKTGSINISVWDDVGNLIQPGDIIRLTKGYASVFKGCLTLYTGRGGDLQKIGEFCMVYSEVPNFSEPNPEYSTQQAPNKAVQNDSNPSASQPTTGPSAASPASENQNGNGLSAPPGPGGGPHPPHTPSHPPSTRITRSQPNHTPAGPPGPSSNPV

Sequences of proteins named here, by UniProt entry; tags and fusion partners are left off.
UniProt O15527: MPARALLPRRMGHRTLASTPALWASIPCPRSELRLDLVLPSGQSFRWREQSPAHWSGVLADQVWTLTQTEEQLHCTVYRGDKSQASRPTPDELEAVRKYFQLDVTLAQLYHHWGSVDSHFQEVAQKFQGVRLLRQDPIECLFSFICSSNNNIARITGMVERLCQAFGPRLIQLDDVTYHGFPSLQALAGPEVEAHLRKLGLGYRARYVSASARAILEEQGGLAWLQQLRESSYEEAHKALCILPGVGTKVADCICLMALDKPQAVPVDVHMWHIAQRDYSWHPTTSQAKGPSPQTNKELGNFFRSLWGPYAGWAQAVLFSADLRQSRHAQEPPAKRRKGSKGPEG

hSSB1 1–179 (human) = molecular target: T2, hSSB1 1–179 (human) (UniProt Q9BQ15); test: as above
T2 sequence: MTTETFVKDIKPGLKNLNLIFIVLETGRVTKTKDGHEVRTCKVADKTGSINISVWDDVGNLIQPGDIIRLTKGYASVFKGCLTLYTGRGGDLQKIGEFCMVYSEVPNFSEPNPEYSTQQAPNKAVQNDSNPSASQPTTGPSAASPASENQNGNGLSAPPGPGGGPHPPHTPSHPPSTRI

[1] = molecular target: human single-stranded DNA-binding protein 1 (hSSB1), endogenous (human (endogenous in U2OS)) (UniProt Q9BQ15); test: co-IP; reciprocal immunoprecipitation with anti-hSSB1 or anti-hOGG1 antibody from U2OS cell lysates, cells treated or untreated with H2O2; protein A/G Dynabeads, washed five times in NP40 buffer (20 mM HEPES pH 8.0, 150 mM KCl, 0.2% NP40); immunoblot
[2] = molecular target: human 8-oxoguanine glycosylase 1 (hOGG1), endogenous (human (endogenous in U2OS)) (UniProt O15527); test: as above

## GST-hOGG1 wild type (from UniProt O15527 1-345) (enzyme)
hSSB1 1–199 (human)
  binding: binds
hSSB1 1–179 (human)
  binding: no binding (tested: 2 μg GST-tagged hOGG1)

## human 8-oxoguanine glycosylase 1 (hOGG1), endogenous (from UniProt O15527 1-345) (enzyme)
[1]
  binding: binds

## human single-stranded DNA-binding protein 1 (hSSB1), endogenous (from UniProt Q9BQ15 1-211)
[2]
  binding: binds
